Values from PubChem BioAssay AID1259308 (NCATS, 2017)

Screen: 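Candidate targets for better recombinant protein yield in mammalian cells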 (primary screen)
System: human HEK293 embryonic kidney cells stably expressing firefly luciferase (HEK-CMV-Luc2-Hygro)
Reagent: single siRNA against human genes, 0.8 pmol siRNA per well
Timing: 72 h
Read-out: 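Luciferase light (ONE-Glo) measured on one replicate plate set and viability (CellTiter-Glo) on the other, scaled to a negative control siRNA, with robust z-scores and luciferase per cell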
Direction: total luciferase, z-score and total luciferase, % of control: higher = more reporter protein produced
Rule for the call: 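An siRNA counts as active if its total luciferase robust z-score exceeds 3; genes with two or more such siRNAs out of three were retested with fresh siRNAs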
Calls: active = raised luciferase; inactive = no rise
In all, the deposit lists about 59,000 reagents; below is an unselected part. About 1,510 of all reagents (2.6%) count as active. 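Calls use total luciferase alone and ignore viability, so some active siRNAs may act by altering cell number.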 The numbers tell different reagents against one gene apart. Further read-outs or replicates are left out here. No sequences are given here.

Knock-down of LINC00705 (long independently transcribed non-coding RNA 705) #1 gave: total luciferase, z-score -1.48; total luciferase, % of control 52.5; inactive.
Against LINC00705 (long independently transcribed non-coding RNA 705) #2, the entry reads total luciferase, z-score -0.943; total luciferase, % of control 63.1; inactive.
Knock-down of LINC00705 (long independently transcribed non-coding RNA 705) #3 resulted in: total luciferase, z-score 0.465; total luciferase, % of control 91.1; inactive.
CHCHD2P9 #1 gave total luciferase, z-score 0.624; total luciferase, % of control 94.3; inactive.
Knock-down of CHCHD2P9 #2 came out at: total luciferase, z-score -0.527; total luciferase, % of control 71.4; inactive.
CHCHD2P9 #3 gave total luciferase, z-score 1.7; total luciferase, % of control 116; inactive.
HPCA (hippocalcin) #1 showed total luciferase, z-score 1.3; total luciferase, % of control 108; inactive.
HPCA (hippocalcin) #2 scored total luciferase, z-score 0.0866; total luciferase, % of control 83.6; inactive.
For HPCA (hippocalcin) #3, the values are total luciferase, z-score -0.592; total luciferase, % of control 70.1; inactive.
For MYBPC3 (myosin binding protein C3) #1, the entry reads total luciferase, z-score -0.483; total luciferase, % of control 72.3; inactive.
Knock-down of MYBPC3 (myosin binding protein C3) #2 came out at: total luciferase, z-score 0.13; total luciferase, % of control 84.5; inactive.
With knock-down of MYBPC3 (myosin binding protein C3) #3, the screen gave total luciferase, z-score 0.0284; total luciferase, % of control 82.5; inactive.

Sorted by “total luciferase, % of control” (ascending): some entries from above
CHCHD2P9 #2 → total luciferase, z-score: -0.527; total luciferase, % of control: 71.4; outcome: inactive
CHCHD2P9 #3 → total luciferase, z-score: 1.7; total luciferase, % of control: 116; outcome: inactive
